Source: publication PMC7862700
The list shows a part of the results, in another mix than the full data. At the low end of the ranking the order means little.

target: SPI1 (UniProt P17947); assay: DAPPL (digital affinity profiling via proximity ligation, sequencing); settings: 10 mM Tris-HCl pH 7.5, 50 mM NaCl, 1 mM DTT, 4% glycerol, room temperature, 30 min; GST-TFs on glutathione beads, 16-mer random dsDNA library, 0.1% …; high values mean tight binding; double strand, one strand shown; scale: fold enrichment (6-mer frequency, TF over GST control)

Sequence | binding signal
TCAGTG | 0.817
CCAGCC | 0.771
GGAGGA | 0.255
GACTAG | 0.733
ACGGGT | 0.836
AGACAG | 0.524
AGTGGG | 0.817
GGGTCG | 0.614
AGAGTG | 0.553
GACTGT | 0.413
GGTCAG | 0.559
AGCAGG | 0.862
GGTGCC | 0.711
GAACCG | 0.768
AACGAG | 0.804
GACCGT | 0.449
AGAGTA | 0.741
GTGTAT | 0.968
TCAGAA | 0.943
GTCTGT | 0.883

Rewritten as tab-separated lines: part of the list above
Sequence	binding signal
AGACAG	0.524
AGTGGG	0.817
GGGTCG	0.614

The listing continues:

Sequence | binding signal
AACAGT | 0.643
GCAGCG | 0.734
TAGCCG | 0.807
AGTTAG | 0.882
GTGACG | 0.848
CGGCGT | 0.892
TGGGGG | 0.679
GTTAGA | 0.776
CGGAAT | 0.863
GCAGGC | 0.719
CAGAGG | 0.578
CAGACC | 0.796
GCCGTT | 0.802
GGAAAG | 0.864
GACAAT | 0.915
CAGCCA | 0.821
GGACAG | 0.549
GAGCGG | 0.545
ATCGTA | 0.803
AGCAGT | 0.714
